According to patent US20150010586A1:
These are yes or no findings as the source states them, for the method shown. Binding can be weak; no strength is given.

Legend:
Conditions in all cases: remark: other sources report otherwise
HLA-A*0301 (human) [1] = assay: peptide binding analysis (Table 1)
HLA-A*1101 (human) [2] = assay: peptide binding analysis (Table 1)
HLA-A*0301 (human) [3] = assay: cellular competition assay vs FL-labelled reference peptide on B cells; affinity category (high/good IC50<5 uM, intermediate 5-15 uM, low >15-50 uM)
HLA-A*1101 (human) [4] = assay: as above

| binding (HLA-A*0301 (human) [1]) | binding (HLA-A*1101 (human) [2]) | binding (HLA-A*0301 (human) [3]) | binding (HLA-A*1101 (human) [4]) | Binder |
| --- | --- | --- | --- | --- |
|  |  | binds |  | KGQSTSRHK [p53 373-381 …] |
|  |  | binds |  | RAHSSHLKSK [p53 363-372 …] |

Second part, the binder before the results:

| Binder | binding (HLA-A*0301 (human) [1]) | binding (HLA-A*1101 (human) [2]) | binding (HLA-A*0301 (human) [3]) | binding (HLA-A*1101 (human) [4]) |
| --- | --- | --- | --- | --- |
| LGFLHSGTAK [p53 111-120 …] | binds | binds |  |  |
| RTEEENLRK [p53 283-291 …] |  |  |  | binds |
| GFLHSGTAK [p53 112-120 …] | binds | binds | binds | binds |
